Results are given in words; binding and its absence hold for the method and conditions named. In cells and extracts the contact can be indirect. Some results given as binding are weak or reduced against the parent protein; the word gives no strength.

This passage reports binding results from paper PMC10495261.

Assay [1] has as its target T1, RBFOX2 (human (endogenous in K562 and NB4)) (UniProt O43251).
T1 sequence: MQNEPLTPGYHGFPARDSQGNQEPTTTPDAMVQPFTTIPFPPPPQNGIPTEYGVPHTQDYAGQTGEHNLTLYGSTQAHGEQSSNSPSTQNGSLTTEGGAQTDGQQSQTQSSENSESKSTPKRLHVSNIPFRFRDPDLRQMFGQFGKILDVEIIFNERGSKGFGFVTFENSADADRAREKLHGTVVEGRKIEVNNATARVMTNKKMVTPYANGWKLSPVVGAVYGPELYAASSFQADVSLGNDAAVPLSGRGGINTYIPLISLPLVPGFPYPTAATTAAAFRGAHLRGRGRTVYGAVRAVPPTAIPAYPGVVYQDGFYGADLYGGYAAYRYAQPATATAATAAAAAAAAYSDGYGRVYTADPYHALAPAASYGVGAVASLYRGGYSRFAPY
The assay is described as follows: co-IP; endogenous proteins from K562 lysate (50 mM Tris-HCl pH 7.5, 150 mM NaCl, 1% NP40); antibody-conjugated Protein G Dynabeads, 4 °C overnight; after RNase A/T1 treatment; western blot. A general note: A western blot detects proteins with antibodies after separation by electrophoresis.

For assay [2], the target named is T1, RBFOX2 (human (endogenous in K562 and NB4)). The assay is described as follows: co-IP; endogenous proteins immunoprecipitated from NB4 cells, after RNase A/T1 treatment; western blot.

B1: RBM15 (protein, UniProt Q96T37 1-977)
chain: MRTAGRDPVPRRSPRWRRAVPLCETSAGRRVTQLRGDDLRRPATMKGKERSPVKAKRSRGGEDSTSRGERSKKLGGSGGSNGSSSGKTDSGGGSRRSLHLDKSSSRGGSREYDTGGGSSSSRLHSYSSPSTKNSSGGGESRSSSRGGGGESRSSGAASSAPGGGDGAEYKTLKISELGSQLSDEAVEDGLFHEFKRFGDVSVKISHLSGSGSGDERVAFVNFRRPEDARAAKHARGRLVLYDRPLKIEAVYVSRRRSRSPLDKDTYPPSASVVGASVGGHRHPPGGGGGQRSLSPGGAALGYRDYRLQQLALGRLPPPPPPPLPRDLERERDYPFYERVRPAYSLEPRVGAGAGAAPFREVDEISPEDDQRANRTLFLGNLDITVTESDLRRAFDRFGVITEVDIKRPSRGQTSTYGFLKFENLDMSHRAKLAMSGKIIIRNPIKIGYGKATPTTRLWVGGLGPWVPLAALAREFDRFGTIRTIDYRKGDSWAYIQYESLDAAHAAWTHMRGFPLGGPDRRLRVDFADTEHRYQQQYLQPLPLTHYELVTDAFGHRAPDPLRGARDRTPPLLYRDRDRDLYPDSDWVPPPPPVRERSTRTAATSVPAYEPLDSLDRRRDGWSLDRDRGDRDLPSSRDQPRKRRLPEESGGRHLDRSPESDRPRKRHCAPSPDRSPELSSSRDRYNSDNDRSSRLLLERPSPIRDRRGSLEKSQGDKRDRKNSASAERDRKHRTTAPTEGKSPLKKEDRSDGSAPSTSTASSKLKSPSQKQDGGTAPVASASPKLCLAWQGMLLLKNSNFPSNMHLLQGDLQVASSLLVEGSTGGKVAQLKITQRLRLDQPKLDEVTRRIKVAGPNGYAILLAVPGSSDSRSSSSSAASDTATSTQRPLRNLVSYLKQKQAAGVISLPVGGNKDKENTGVLHAFPPCEFSQQFLDSPAKALAKSEEDYLVMIIVRGFGFQIGVRYENKKRENLALTLL
As to B1, the binding result in assay [1] and in assay [2] was “binds” in each case.
